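Viability assay of Plasmodium falciparum sporozoites; the read-out is not stated. The concentration is filed as 10 mM, unlikely as a test dose, so the dose is not known. Higher reads as lower viability (inferred: compounds with an IC50 in retests scored well above the rest). Strong results were mostly tested again. Size under these conditions: about 34,000 compounds, about 280 of them at 50% or above in at least one test.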

Each number is a percent effect as filed.
The controls that fix the scale are not given in the record; negative values are as filed.
The compounds are a random part of those screened.
Two or more numbers in one place are separate tests of the same structure; such repeats can differ widely.

| SMILES | percent effect |
|---|---|
| `CC(=O)N1CCCN(C(=O)CCOc2ccc(C(C)C)cc2)CC1` | -6.72 |
| `O=C(c1cccc(F)c1)N1C[C@@H](CN2CCCCC2)[C@@H](CO)C1` | -11.1 & -12.2 |
| `CN(C)C(=O)C1CN(Cc2cscn2)CCN(S(C)(=O)=O)C1` (stereo not given) | -9.36 |
| `CCC(O)CN1CCN(C(=O)c2cccc3[nH]ncc23)CC1` (stereo not given) | -6.283 |
| `CC(C)c1nn(C)c(N(C)C)c1CNCc1ccc2c(c1)OCCO2` | 19.48 |
| `N#Cc1cc(NC(=O)c2ccccc2)ccc1N1CCC(O)CC1` | -10.71 |
| `Cc1nc(CN2CCCN(C(=O)c3c(C)noc3C)CC2)cs1` | -0.7455 |
| `[H][C@]12CCN[C@@]1([H])CN(C(=O)Cc1ccc(F)cc1)C2` | 5.166 |
| `[H][C@@]12CS(=O)(=O)C[C@]1([H])N(Cc1ncc[nH]1)CCN2Cc1cccnc1` | -12.03 |
| `O=C(NCc1ccccc1Cn1cncn1)C1CCC1` | -3.501 |
| `[H][C@@]12CN(S(C)(=O)=O)C[C@]1(C(=O)NC)CCC21CCN(C(=O)COC)CC1` | -3.596 |
| `CCc1cccc2cc(CN)c(=O)[nH]c12` | 20.33 |
| `CC(C)CNC(=O)NC(=O)CNc1ccccc1SCC(C)C#N` (stereo not given) | -2.952 |
| `O=C(NCCNc1ncccn1)C1CCN(c2ncccn2)CC1` | 2.59 |
| `Cc1cc(C)n(-c2ccc(N3CCC4(CC3)OCC(C)O4)nc2)n1` (stereo not given) | 31.18 & 55.53 & 10.38 |
| `O=C(O)C(F)(F)F.O=C(O)C(F)(F)F.[H][C@]12CCC[C@@H](CNc3ncccn3)[C@@]1([H])CN(CCOC)C2` | 16.1 |
| `O=C1NCC[C@]12CN(Cc1ccoc1)C[C@H]2c1ccccc1` | 1.229 |
| `Cc1ncccc1Oc1nccnc1C1CCCN(C(C)C)C1` (stereo not given) | 1.506 |
| `CCc1nc(CCNC(=O)NC2CCN(C(C)C)C2)sc1C` (stereo not given) | 6.982 |
| `COc1ccnc(C(=O)N2CCCC(c3noc(C)n3)C2)c1` (stereo not given) | -0.4112 |
| `O=C(c1cccc2ncccc12)N1CCCC(n2ccnc2)C1` (stereo not given) | 12.21 |
| `COC1CN(C(=O)NCC(N)=O)CCC(=O)N(C)c2ccccc21` (stereo not given) | -37.6 |
| `CCOCC1CN(S(=O)(=O)c2cccc(C)c2)Cc2nccn2C1` (stereo not given) | 8.945 |
| `CC(=O)N1CCC[C@H]1C(=O)NCCOc1cccc(Cl)c1` | 1.962 |
| `O=C(CCC1CCCO1)NCc1ccnc(-n2cccn2)c1` (stereo not given) | 6.601 |
| `COc1ccc(CNC(=O)Nc2cccnc2N2CCCC2)cc1O` | 7.52 |
| `Cn1cc(NC(=O)N2CCN(Cc3cscn3)CC2)ccc1=O` | -1.956 |
| `CCc1nnc2n1CC(CNCC1CCCC1)CC2` (stereo not given) | 10.56 |
| `O=C(CC1CC1)NCc1cn2c(n1)CN(Cc1cccnc1)CC2.O=C(O)C(F)(F)F.O=C(O)C(F)(F)F` | 2.189 |
| `[H][C@]12CCN(S(=O)(=O)c3ccc(C)cc3)C[C@@]1([H])OCCN(C(C)=O)C2` | -3.813 |
| `CN(C)c1nccc(CNS(=O)(=O)c2ccc(F)c(Cl)c2)n1` | -3.908 |
| `O=C(O)C(F)(F)F.O=C(O)C(F)(F)F.[H][C@]12CCN(Cc3ccco3)[C@@]1([H])CC[C@@H](COCc1cccc(C)n1)O2` | -21.23 |
| `CCS(=O)(=O)N1CCc2nc(C3CCN(C(=O)C4CC4)C3)nc(O)c2C1` (stereo not given) | -8.243 |
| `O=C(NCC1CC1)C1CCC2(CCNCC2)C1` (stereo not given) | 6.33 |
| `Cc1ccnc(C2CCN(CCCOc3ccccc3F)C2)n1` (stereo not given) | 9.689 |
| `O=C(C1CCOC1)N1CCN(CCn2cccn2)c2ncccc2C1.O=C(O)C(F)(F)F` (stereo not given) | -5.68 & -11.9 & 8.185 |
| `COc1cc(N2CCC3(CC2)CN(S(C)(=O)=O)c2ccccc23)ncn1` | -3.682 |
| `Cc1cccn2c(=O)cc(CSCC(=O)Nc3nnc(C(C)C)s3)nc12` | 0.8057 |
| `CC(C)N(C)S(=O)(=O)c1ccc2c(c1)CCN(C(=O)c1cscn1)C2` | -2.686 |
| `N#Cc1ccc(OC2CCN(C(=O)c3ccc4c(c3)OCO4)CC2)nc1` | -4.604 |
| `COc1ccc(CN(Cc2cncn2C)CC2CCCO2)cc1OC.O=C(O)CC(O)(CC(=O)O)C(=O)O` (stereo not given) | -13.15 |
| `CCOCCCNC(=O)C(NC(=O)Cc1cccs1)c1ccc(C)cc1` (stereo not given) | 7.902 |
| `O=C(NCc1cccnc1N1CCCCC1)c1ccc2cc[nH]c2c1` | 1.611 |
| `CN1CCN(C(=O)C2CCN(c3cccnn3)C2)CC1` (stereo not given) | 2.403 |
| `CCc1nnc2n1CCN(CC(O)c1ccc3c(c1)OCCO3)C2` (stereo not given) | 8.311 |
| `Cc1cc(C)n(CC2CN(CCOc3cccc(F)c3)CCO2)n1` (stereo not given) | 6.112 |
| `CCS(=O)(=O)CC(=O)NC(C)c1ccccc1Oc1ccccc1` (stereo not given) | -0.1304 |
| `CCn1nc2c(cc1=O)CN(Cc1nc(-c3cccnc3)no1)CC2` | 14.5 |
| `Cc1nc(NCc2nonc2C)cc(C(C)Cn2nc(C)c(C)c2C)n1` (stereo not given) | 1.075 |
| `CCCS(=O)(=O)NCC1CCOc2ccccc2C1` (stereo not given) | 8.07 |
| `Cc1ncsc1CCC(=O)NCc1csc(N(C)C)n1` | -4.491 |
| `CSc1ccc(NC(=O)Cn2cc(NC(C)=O)cn2)cc1` | -3.893 |
| `Cc1cc(C(=O)N2CCCC2c2nc(O)cc(C(C)C)n2)on1` (stereo not given) | 1.532 |
| `CN1CC2(CCCN(Cc3nnc(-c4ccccc4)o3)CC2)OC1=O` (stereo not given) | 4.449 & 7.166 |
| `Cc1cc(N2CCN(C(=O)c3cccnc3)CC2)nc(C)n1` | 14.34 |
| `COc1ccc(C(C)NCc2ccc(OC)c(OC)c2OC)cc1F.Cl` (stereo not given) | -15.2 |
| `CC(=O)N1CCC2(CC1)CCN(C(=O)c1cccc(C(F)(F)F)c1)C2` | -32.85 |
| `CC(C(=O)N(C)C)S(=O)(=O)c1cc2c(cc1Cl)OCCO2` (stereo not given) | -2.971 |
| `[H][C@@]12CCN(C(=O)c3cccn3C)C[C@@]1([H])O[C@@H](C)C2` | -0.2286 |
| `CCc1nnc(CN(C)C2CCCN(Cc3noc(C4CC4)n3)C2)o1` (stereo not given) | 1.526 |
| `Cc1cnn(CC2CCCN2C(=O)CCc2c(C)noc2C)c1` (stereo not given) | -3.133 |
| `COCCn1cnc2ccc(NC(=O)C(C)C)cc2c1=O` | -6.319 |
| `CS(=O)(=O)NCc1cc2n(n1)CCCN(Cc1nc3ccccc3[nH]1)C2` | 1.559 |
| `CCOc1cc(/C=C/c2ncc(C(=O)O)s2)cc(Br)c1OC` | 6.645 |

7 of the entries, repeated:

| SMILES | percent effect |
|---|---|
| `O=C(CC1CC1)NCc1cn2c(n1)CN(Cc1cccnc1)CC2.O=C(O)C(F)(F)F.O=C(O)C(F)(F)F` | 2.189 |
| `CN1CC2(CCCN(Cc3nnc(-c4ccccc4)o3)CC2)OC1=O` (stereo not given) | 4.449 & 7.166 |
| `COc1cc(N2CCC3(CC2)CN(S(C)(=O)=O)c2ccccc23)ncn1` | -3.682 |
| `O=C(NCc1ccccc1Cn1cncn1)C1CCC1` | -3.501 |
| `CC(=O)N1CCC2(CC1)CCN(C(=O)c1cccc(C(F)(F)F)c1)C2` | -32.85 |
| `COC1CN(C(=O)NCC(N)=O)CCC(=O)N(C)c2ccccc21` (stereo not given) | -37.6 |
| `Cc1cc(C)n(-c2ccc(N3CCC4(CC3)OCC(C)O4)nc2)n1` (stereo not given) | 31.18 & 55.53 & 10.38 |

Data taken from ChEMBL document CHEMBL3988442, “University of Dundee, Small-Polar-MMV Screening Library” (2021).